At least one structure is not confirmed: it was looked up by name or label, or the drawing left a doubt.
Tested on: lymph node IL-12p40 and IP-10
Experiment: Lymph node cytokine production after subcutaneous footpad administration (ELISA of ex vivo lymph node culture supernatant)
Type: in vivo, C57/BL6 mice
Settings: CpG 20 μg, R848 62.5 nmol, PP-7/8a^Hi 62.5 nmol

## CCOCc1nc2c(N)nc3ccccc3c2n1CC(C)(C)O [R848]
  local (lymph node) cytokines: no local activity

Reference: patent US20250090658A1, “POLYMER ADJUVANT” (Oxford University Innovation Limited, priority 2014, published 2025)
